In US20210380651A1 (SIOLTA THERAPEUTICS, published 2021):
These are yes or no findings as the source states them, for the method shown. Some binding calls cover weakened binding; strength is not graded here. Sequences can lack the tags named with a protein.

Molecular target: T1, mouse Fc epsilon receptor 1 a-chain (mFCER1A) protein (mouse) (UniProt P20489)
T1 sequence (looked up): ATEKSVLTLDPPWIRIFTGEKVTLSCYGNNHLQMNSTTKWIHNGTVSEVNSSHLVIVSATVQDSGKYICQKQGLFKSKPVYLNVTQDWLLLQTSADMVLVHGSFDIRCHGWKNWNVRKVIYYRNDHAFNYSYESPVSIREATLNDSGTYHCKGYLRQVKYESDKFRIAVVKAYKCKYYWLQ
Test: ELISA, plates coated with increasing concentrations of mFCER1A and probed with IgE-Fc

B1: IgE-Fc protein having the amino acid sequence set forth in SEQ ID NO: 5 (protein, not shown: small tags and cut ends)
chain: MVRSVRPVNITEPTLELLHSSCDPNAFHSTIQLYCFIYGHILNDVSVSWLMDDREITDTLAQTVLIKEEGKLASTCSKLNITEQQWMSESTFTCKVTSQGVDYLAHTRRCPDHEPRGVITYLIPPSPLDLYQNGAPKLTCLVVDLESEKNVNVTWNQEKKTSVSASQWYTKHHNNATTSITSILPVVAKDWIEGYGYQCIVDHPDFPKPIVRSITKTPGQRSAPEVYVFPPPEEESEDKRTLTCLIQNFFPEDISVQWLGDGKLISNSQHSTTTPLKSNGSNQGFFIFSRLEVAKTLWTQRKQFTCQVIHEALQKPRKLEKTISTSLGNTSLRPS
modifications: glycosylated (fully glycosylated IgE-Fc)
binding: binds
